Test results as given in the supplement of paper PMC8728848.
Some of the results follow.

Legend:
Assay in all cases: glycan array binding signal (z-score within array); higher = stronger binding
Conditions in all cases: glycan notation: IUPAC condensed, linker removed
[1] = target: Neu5Ac(a2-6)GlcNAc(b1-4)GlcNAc(b1-4)GlcNAc
Summary of the method: (§1)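 Glycan array data came from 3228 arrays in the Consortium for Functional Glycomics database, and only arrays with an available protein sequence were kept. Glycan names were put into IUPAC-condensed notation, and columns mapping to the same glycan were averaged. The binding signal is a within-array Z-score, averaged across arrays of one protein sequence run at different concentrations or buffers and across linkers. A negative Z-score can be read as non-binding.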

Neu5Ac(a2-8)Neu5Ac = target: Neu5Ac(a2-8)Neu5Ac
Summary of the method: as §1

[2] = target: Neu5Ac(a2-8)Neu5Ac(a2-3)Gal(b1-3)GalNAc(b1-4)[Neu5Ac(a2-3)]Gal(b1-4)Glc
Summary of the method: as §1

[3] = target: Neu5Ac(a2-8)Neu5Ac(a2-3)Gal(b1-3)GalNAc(b1-4)[Neu5Ac(a2-8)Neu5Ac(a2-3)]Gal(b1-4)Glc
Summary of the method: as §1

[4] = target: Neu5Ac(a2-8)Neu5Ac(a2-3)Gal(b1-4)Glc
Summary of the method: as §1

[5] = target: Neu5Ac(a2-8)Neu5Ac(a2-3)Gal(b1-4)GlcNAc
Summary of the method: as §1

[6] = target: Neu5Ac(a2-8)Neu5Ac(a2-3)[Gal(b1-3)GalNAc(b1-4)]Gal(b1-4)Glc
Summary of the method: as §1

[7] = target: Neu5Ac(a2-8)Neu5Ac(a2-3)[GalNAc(b1-4)]Gal(b1-4)Glc
Summary of the method: as §1

[8] = target: Neu5Ac(a2-8)Neu5Ac(a2-8)Neu5Ac
Summary of the method: as §1

[9] = target: Neu5Ac(a2-8)Neu5Ac(a2-8)Neu5Ac(a2-3)Gal(b1-4)Glc
Summary of the method: as §1

[10] = target: Neu5Ac(a2-8)Neu5Ac(a2-8)Neu5Ac(a2-3)[Gal(b1-3)GalNAc(b1-4)]Gal(b1-4)Glc
Summary of the method: as §1

[11] = target: Neu5Ac(a2-8)Neu5Ac(a2-8)Neu5Ac(a2-3)[GalNAc(b1-4)]Gal(b1-4)Glc
Summary of the method: as §1

[12] = target: Neu5Ac(a2-8)Neu5Ac(a2-8)Neu5Ac(a2-8)Neu5Ac(a2-3)[GalNAc(b1-4)]Gal(b1-4)Glc
Summary of the method: as §1

[13] = target: Neu5Ac(a2-8)Neu5Gc(a2-3)Gal(b1-4)GlcNAc
Summary of the method: as §1

[14] = target: Neu5Ac(b2-6)Gal(b1-4)GlcNAc
Summary of the method: as §1

Neu5Ac(b2-6)GalNAc = target: Neu5Ac(b2-6)GalNAc
Summary of the method: as §1

[15] = target: Neu5Ac9Ac(a2-3)Gal(b1-3)GlcNAc
Summary of the method: as §1

[16] = target: Neu5Ac9Ac(a2-3)Gal(b1-4)GlcNAc
Summary of the method: as §1

[17] = target: Neu5Ac9Ac(a2-6)Gal(b1-4)GlcNAc
Summary of the method: as §1

[18] = target: Neu5Gc(a2-3)Gal(b1-3)GlcNAc
Summary of the method: as §1

[19] = target: Neu5Gc(a2-3)Gal(b1-3)[Fuc(a1-4)]GlcNAc
Summary of the method: as §1

Neu5Gc(a2-3)Gal(b1-4)Glc = target: Neu5Gc(a2-3)Gal(b1-4)Glc
Summary of the method: as §1

[20] = target: Neu5Gc(a2-3)Gal(b1-4)GlcNAc
Summary of the method: as §1

[21] = target: Neu5Gc(a2-3)Gal(b1-4)GlcNAc(b1-3)Gal(b1-4)GlcNAc(b1-2)Man(a1-3)[Neu5Gc(a2-3)Gal(b1-4)GlcNAc(b1-3)Gal(b1-4)GlcNAc(b1-2)Man(a1-6)]Man(b1-4)GlcNAc(b1-4)GlcNAc
Summary of the method: as §1

[22] = target: Neu5Gc(a2-3)Gal(b1-4)[Fuc(a1-3)]GlcNAc
Summary of the method: as §1

[23] = target: Neu5Gc(a2-6)Gal(b1-4)GlcNAc
Summary of the method: as §1

Neu5Gc(a2-6)GalNAc = target: Neu5Gc(a2-6)GalNAc
Summary of the method: as §1

[24] = target: Neu5Gc(a2-8)Neu5Ac(a2-3)Gal(b1-4)GlcNAc
Summary of the method: as §1

[25] = target: Neu5Gc(a2-8)Neu5Gc(a2-3)Gal(b1-4)GlcNAc
Summary of the method: as §1

[26] = target: Neu5Gc(a2-8)Neu5Gc(a2-3)Gal(b1-4)GlcNAc(b1-3)Gal(b1-4)GlcNAc
Summary of the method: as §1

[27] = target: Neu5Gc(a2-8)Neu5Gc(a2-6)Gal(b1-4)GlcNAc
Summary of the method: as §1

[28] = target: Neu5Gc(b2-6)Gal(b1-4)GlcNAc
Summary of the method: as §1

B1: SHCBP1-GST (Homo sapiens), Q8NEM2 (protein)
chain: MADGSLTGGGLEAAAMAPERMGWAVEQELASLEKGLFQDEDSCSDCSYRDKPGSSLQSFMPEGKTFFPEIFQTNQLLFYERFRAYQDYILADCKASEVQEFTAEFLEKVLEPSGWRAVWHTNVFKVLVEITDVDFAALKAVVRLAEPYLCDSQVSTFTMECMKELLDLKEHRLPLQELWVVFDDSGVFDQTALAIEHVRFFYQNIWRSWDEEEEDEYDYFVRCVEPRLRLHYDILEDRVPSGLIVDYHNLLSQCEESYRKFLNLRSSLSNCNSDSEQENISMVEGLKLYSEMEQLKQKLKLIENPLLRYVFGYQKNSNIQAKGVRSSGQKITHVVSSTMMAGLLRSLLTDRLCQEPGEEEREIQFHSDPLSAINACFEGDTVIVCPGHYVVHGTFSIADSIELEGYGLPDDIVIEKRGKGDTFVDCTGADIKISGIKFVQHDAVEGILIVHRGKTTLENCVLQCETTGVTVRTSAEFLMKNSDLYGAKGAGIEIYPGSQCTLSDNGIHHCKEGILIKDFLDEHYDIPKISMVNNIIHNNEGYGVVLVKPTIFSDLQENAEDGTEENKALKIQTSGEPDVAERVDLEELIECATGKMELCARTDPSEQVEGNCEIVNELIAASTQKGQIKKKRLSELGITQADDNLMSQEMFVGIVGNQFKWNGKGSFGTFLF
[1]
  glycan array binding signal (z-score): 0.48
Neu5Ac(a2-8)Neu5Ac
  glycan array binding signal (z-score): 0.075
[2]
  glycan array binding signal (z-score): -0.239
[3]
  glycan array binding signal (z-score): -0.396
[4]
  glycan array binding signal (z-score): 0.359
[5]
  glycan array binding signal (z-score): -0.54
[6]
  glycan array binding signal (z-score): -0.848
[7]
  glycan array binding signal (z-score): -0.847
[8]
  glycan array binding signal (z-score): -0.151
[9]
  glycan array binding signal (z-score): -0.473
[10]
  glycan array binding signal (z-score): -0.149
[11]
  glycan array binding signal (z-score): 0.386
[12]
  glycan array binding signal (z-score): 0.231
[13]
  glycan array binding signal (z-score): -0.244
[14]
  glycan array binding signal (z-score): -0.65
Neu5Ac(b2-6)GalNAc
  glycan array binding signal (z-score): -0.581
[15]
  glycan array binding signal (z-score): -0.964
[16]
  glycan array binding signal (z-score): -0.56
[17]
  glycan array binding signal (z-score): -0.135
[18]
  glycan array binding signal (z-score): -0.042
[19]
  glycan array binding signal (z-score): 0.247
Neu5Gc(a2-3)Gal(b1-4)Glc
  glycan array binding signal (z-score): -0.781
[20]
  glycan array binding signal (z-score): -0.692
[21]
  glycan array binding signal (z-score): 0.71
[22]
  glycan array binding signal (z-score): 0.014
[23]
  glycan array binding signal (z-score): -0.426
Neu5Gc(a2-6)GalNAc
  glycan array binding signal (z-score): 0.53
[24]
  glycan array binding signal (z-score): -0.164
[25]
  glycan array binding signal (z-score): -0.869
[26]
  glycan array binding signal (z-score): -0.177
[27]
  glycan array binding signal (z-score): 0.341
[28]
  glycan array binding signal (z-score): 0.55
